# Measurements reported in the supplement of paper PMC8728848.
# The list shows a part of the results.
# Experiments:
# Assay in all cases: glycan array binding signal (z-score within array); higher = stronger binding
# Conditions in all cases: glycan notation: IUPAC condensed, linker removed
# [1] = biological target: Neu5Ac(a2-6)Gal(b1-4)GlcNAc(b1-3)[Neu5Ac(a2-6)Gal(b1-4)GlcNAc(b1-6)]GalNAc
# In short: (§1)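 Columns mapping to the same glycan were averaged after glycan names were converted to IUPAC-condensed notation. The data come from 3228 arrays in the Consortium for Functional Glycomics database, limited to those with an available protein sequence. Binding is reported as a within-array Z-score averaged across arrays of one protein sequence and across linkers.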
# [2] = biological target: Neu5Ac(a2-6)Gal(b1-4)GlcNAc(b1-6)GalNAc
# In short: as §1
# [3] = biological target: Neu5Ac(a2-6)Gal(b1-4)GlcNAc(b1-6)[Gal(b1-3)GlcNAc(b1-3)]Gal(b1-4)Glc
# In short: as §1
# [4] = biological target: Neu5Ac(a2-6)Gal(b1-4)GlcNAc(b1-6)[Gal(b1-3)]GalNAc
# In short: as §1
# [5] = biological target: Neu5Ac(a2-6)Gal(b1-4)GlcNAc6S
# In short: as §1
# [6] = biological target: Neu5Ac(a2-6)GalNAc
# In short: as §1
# [7] = biological target: Neu5Ac(a2-6)GalNAc(b1-4)GlcNAc
# In short: as §1
# [8] = biological target: Neu5Ac(a2-6)GalNAc(b1-4)GlcNAc6S
# In short: as §1
# [9] = biological target: Neu5Ac(a2-6)GlcNAc(b1-4)GlcNAc
# In short: as §1
# [10] = biological target: Neu5Ac(a2-6)GlcNAc(b1-4)GlcNAc(b1-4)GlcNAc
# In short: as §1
# [11] = biological target: Neu5Ac(a2-8)Neu5Ac
# In short: as §1
# [12] = biological target: Neu5Ac(a2-8)Neu5Ac(a2-3)Gal(b1-3)GalNAc(b1-4)[Neu5Ac(a2-3)]Gal(b1-4)Glc
# In short: as §1
# [13] = biological target: Neu5Ac(a2-8)Neu5Ac(a2-3)Gal(b1-3)GalNAc(b1-4)[Neu5Ac(a2-8)Neu5Ac(a2-3)]Gal(b1-4)Glc
# In short: as §1
# [14] = biological target: Neu5Ac(a2-8)Neu5Ac(a2-3)Gal(b1-4)Glc
# In short: as §1
# [15] = biological target: Neu5Ac(a2-8)Neu5Ac(a2-3)Gal(b1-4)GlcNAc
# In short: as §1
# [16] = biological target: Neu5Ac(a2-8)Neu5Ac(a2-3)[Gal(b1-3)GalNAc(b1-4)]Gal(b1-4)Glc
# In short: as §1
# [17] = biological target: Neu5Ac(a2-8)Neu5Ac(a2-3)[GalNAc(b1-4)]Gal(b1-4)Glc
# In short: as §1
# [18] = biological target: Neu5Ac(a2-8)Neu5Ac(a2-8)Neu5Ac
# In short: as §1
# [19] = biological target: Neu5Ac(a2-8)Neu5Ac(a2-8)Neu5Ac(a2-3)Gal(b1-4)Glc
# In short: as §1
# [20] = biological target: Neu5Ac(a2-8)Neu5Ac(a2-8)Neu5Ac(a2-3)[Gal(b1-3)GalNAc(b1-4)]Gal(b1-4)Glc
# In short: as §1
# [21] = biological target: Neu5Ac(a2-8)Neu5Ac(a2-8)Neu5Ac(a2-3)[GalNAc(b1-4)]Gal(b1-4)Glc
# In short: as §1
# [22] = biological target: Neu5Ac(a2-8)Neu5Ac(a2-8)Neu5Ac(a2-8)Neu5Ac(a2-3)[GalNAc(b1-4)]Gal(b1-4)Glc
# In short: as §1
# [23] = biological target: Neu5Ac(a2-8)Neu5Gc(a2-3)Gal(b1-4)GlcNAc
# In short: as §1
# [24] = biological target: Neu5Ac(b2-6)Gal(b1-4)GlcNAc
# In short: as §1
# [25] = biological target: Neu5Ac(b2-6)GalNAc
# In short: as §1
# [26] = biological target: Neu5Ac9Ac(a2-3)Gal(b1-3)GlcNAc
# In short: as §1
# [27] = biological target: Neu5Ac9Ac(a2-3)Gal(b1-4)GlcNAc
# In short: as §1
# [28] = biological target: Neu5Ac9Ac(a2-6)Gal(b1-4)GlcNAc
# In short: as §1
# [29] = biological target: Neu5Gc(a2-3)Gal(b1-3)GlcNAc
# In short: as §1
# [30] = biological target: Neu5Gc(a2-3)Gal(b1-3)[Fuc(a1-4)]GlcNAc
# In short: as §1
# [31] = biological target: Neu5Gc(a2-3)Gal(b1-4)Glc
# In short: as §1
# [32] = biological target: Neu5Gc(a2-3)Gal(b1-4)GlcNAc
# In short: as §1
# [33] = biological target: Neu5Gc(a2-3)Gal(b1-4)GlcNAc(b1-3)Gal(b1-4)GlcNAc(b1-2)Man(a1-3)[Neu5Gc(a2-3)Gal(b1-4)GlcNAc(b1-3)Gal(b1-4)GlcNAc(b1-2)Man(a1-6)]Man(b1-4)GlcNAc(b1-4)GlcNAc
# In short: as §1
# [34] = biological target: Neu5Gc(a2-3)Gal(b1-4)[Fuc(a1-3)]GlcNAc
# In short: as §1
# [35] = biological target: Neu5Gc(a2-6)Gal(b1-4)GlcNAc
# In short: as §1
# [36] = biological target: Neu5Gc(a2-6)GalNAc
# In short: as §1
# [37] = biological target: Neu5Gc(a2-8)Neu5Ac(a2-3)Gal(b1-4)GlcNAc
# In short: as §1
# [38] = biological target: Neu5Gc(a2-8)Neu5Gc(a2-3)Gal(b1-4)GlcNAc
# In short: as §1
binder,measurement,setting,value
"MtEccB1 (Mycobacterium tuberculosis H37Rv), O69734 (protein) MGLRLTTKVQVSGWRFLLRRLEHAIVRRDTRMFDDPLQFYSRSIALGIVVAVLILAGAALLAYFKPQGKLGGTSLFTDRATNQLYVLLSGQLHPVYNLTSARLVLGNPANPATVKSSELSKLPMGQTVGIPGAPYATPVSAGSTSIWTLCDTVARADSTSPVVQTAVIAMPLEIDASIDPLQSHEAVLVSYQGETWIVTTKGRHAIDLTDRALTSSMGIPVTARPTPISEGMFNALPDMGPWQLPPIPAAGAPNSLGLPDDLVIGSVFQIHTDKGPQYYVVLPDGIAQVNATTAAALRATQAHGLVAPPAMVPSLVVRIAERVYPSPLPDEPLKIVSRPQDPALCWSWQRSAGDQSPQSTVLSGRHLPISPSAMNMGIKQIHGTATVYLDGGKFVALQSPDPRYTESMYYIDPQGVRYGVPNAETAKSLGLSSPQNAPWEIVRLLVDGPVLSKDAALLEHDTLPADPSPRKVPAGASGAP",glycan array binding signal (z-score),[1],1.19
same,glycan array binding signal (z-score),[2],0.463
same,glycan array binding signal (z-score),[3],-0.947
same,glycan array binding signal (z-score),[4],-0.358
same,glycan array binding signal (z-score),[5],-0.979
same,glycan array binding signal (z-score),[6],-0.143
same,glycan array binding signal (z-score),[7],0.226
same,glycan array binding signal (z-score),[8],0.044
same,glycan array binding signal (z-score),[9],0.959
same,glycan array binding signal (z-score),[10],0.157
same,glycan array binding signal (z-score),[11],0.148
same,glycan array binding signal (z-score),[12],0.737
same,glycan array binding signal (z-score),[13],-0.114
same,glycan array binding signal (z-score),[14],-0.908
same,glycan array binding signal (z-score),[15],-1.13
same,glycan array binding signal (z-score),[16],1.64
same,glycan array binding signal (z-score),[17],0.156
same,glycan array binding signal (z-score),[18],-1.29
same,glycan array binding signal (z-score),[19],0.746
same,glycan array binding signal (z-score),[20],-0.823
same,glycan array binding signal (z-score),[21],-0.415
same,glycan array binding signal (z-score),[22],-0.146
same,glycan array binding signal (z-score),[23],-1.21
same,glycan array binding signal (z-score),[24],0.69
same,glycan array binding signal (z-score),[25],1.46
same,glycan array binding signal (z-score),[26],-0.651
same,glycan array binding signal (z-score),[27],-0.456
same,glycan array binding signal (z-score),[28],-0.819
same,glycan array binding signal (z-score),[29],-0.412
same,glycan array binding signal (z-score),[30],-0.232
same,glycan array binding signal (z-score),[31],0.483
same,glycan array binding signal (z-score),[32],-0.509
same,glycan array binding signal (z-score),[33],-0.707
same,glycan array binding signal (z-score),[34],0.844
same,glycan array binding signal (z-score),[35],-0.129
same,glycan array binding signal (z-score),[36],-1.4
same,glycan array binding signal (z-score),[37],0.304
same,glycan array binding signal (z-score),[38],0.177

# Quoted at random: three records from the list.
binder,measurement,setting,value
"MtEccB1 (Mycobacterium tuberculosis H37Rv), O69734 (protein) MGLRLTTKVQVSGWRFLLRRLEHAIVRRDTRMFDDPLQFYSRSIALGIVVAVLILAGAALLAYFKPQGKLGGTSLFTDRATNQLYVLLSGQLHPVYNLTSARLVLGNPANPATVKSSELSKLPMGQTVGIPGAPYATPVSAGSTSIWTLCDTVARADSTSPVVQTAVIAMPLEIDASIDPLQSHEAVLVSYQGETWIVTTKGRHAIDLTDRALTSSMGIPVTARPTPISEGMFNALPDMGPWQLPPIPAAGAPNSLGLPDDLVIGSVFQIHTDKGPQYYVVLPDGIAQVNATTAAALRATQAHGLVAPPAMVPSLVVRIAERVYPSPLPDEPLKIVSRPQDPALCWSWQRSAGDQSPQSTVLSGRHLPISPSAMNMGIKQIHGTATVYLDGGKFVALQSPDPRYTESMYYIDPQGVRYGVPNAETAKSLGLSSPQNAPWEIVRLLVDGPVLSKDAALLEHDTLPADPSPRKVPAGASGAP",glycan array binding signal (z-score),[16],1.64
same,glycan array binding signal (z-score),[25],1.46
same,glycan array binding signal (z-score),[9],0.959
